# Experimental data reported in PubChem BioAssay AID504834 (National Center for Advancing Translational Sciences (NCATS), 2011).
# Hit rate of the full screen: of about 320,000 compounds, about 22,000 (6.9%) were called active. Inconclusive results, whose numbers are uncertain, are shown with a selection of clear calls. The call rests on the fitted dose curve; in most records, active means well fitted inhibition curve with a large enough effect; inconclusive means small, poorly fitted or top-dose-only effect, or another doubt; inactive means no such curve, though single readings can be large or run the other way. A potency beside an inconclusive call is a rough fit, not a confirmed value.
# Test: Primary qHTS for delayed death inhibitors of the malarial parasite plastid, 96 hour incubation
# Settings: P. falciparum luciferase reporter growth; series mostly up to 28.7 µM; activity change, negative = inhibition: at the top concentration
# Procedure, shortened: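 Erythrocytes infected with luciferase-expressing P. falciparum were dispensed at 2% hematocrit and 0.05% parasitemia (final), then incubated with compounds 96 hours at 37 C in 5% CO2. Luminescence after detection reagent addition reported growth.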
# On the % scale 0 is the no-effect control and ±100 the full control effect; potency means the concentration at half of the fitted maximal effect.
SMILES,Potency,"activity change, negative = inhibition"
COc1ccc(C(=O)/C=C/C(=O)N(CC(=O)NC2CCCCC2)Cc2ccccc2)c(O)c1,active: 2.62 µM,–
N#Cc1ccccc1Sc1ccccc1C(=O)OCC(=O)NC12CC3CC(CC(C3)C1)C2,"inconclusive: 14.7 µM [inhibitor, single point]",–
CC(C)O,–,inactive: 1.73%
O=C(CSc1nc(=O)n(CCCN2CCOCC2)c2c1CCC2)Nc1cccc(F)c1,"inconclusive: 18.5 µM [inhibitor, single point]",–
CC(C)c1ccc(CC(NC(=O)c2ccccc2)C(=O)NCC(=O)O)cc1 (stereo unspecified),–,inactive: 6.02%
Cn1c(=O)[nH]c(=O)c2c1nc(N1CCNCC1)n2Cc1ccccc1,"inconclusive: 9.28 µM [inhibitor, partial curve, poor fit]",–
C/C(=N\NC(=O)Cc1ccc(Cl)c(Cl)c1)c1cccnc1,–,inactive: -23.7%
CN(C1CCCCC1)S(=O)(=O)c1cc2c(cc1Cl)NC(=O)CO2,"inconclusive: 0.185 µM [inhibitor, full curve, poor fit]",–
O=S(=O)(Cc1ccccc1)N=Nc1c(O)[nH]c2ccc(Br)cc12,"inconclusive: 0.0037 µM [inhibitor, full curve, poor fit]",–
O=C(NC(=S)N1CCc2ccccc21)c1ccc(Br)o1,"inconclusive: 13.1 µM [inhibitor, single point]",–
CN1CCN(c2nc3ccccc3nc2C(C#N)C(=O)OC2CCCCC2)CC1 (stereo unspecified),"inconclusive: 0.828 µM [inhibitor, full curve]",–
COC(=O)C1=CN(CC2CCCO2)C=C(C(=O)OC)C1c1ccccc1C(F)(F)F (stereo unspecified),"inconclusive: 1.47 µM [inhibitor, full curve, poor fit]",–
O=C(C[n+]1ccccc1)Nc1ccc(Cl)c([N+](=O)[O-])c1,"inconclusive: 16.5 µM [inhibitor, single point]",–
Cc1ccc(CNC(=O)c2cc(C3CC3)nc3c2cnn3C(C)C)cc1,"inconclusive: 4.15 µM [inhibitor, full curve]",–
COc1ccc(S(=O)(=O)NCc2cccnc2)cc1NC(=O)c1ccccc1,–,inactive: -22.7%
O=C1Nc2ccccc2/C1=N\N=C\C1=C(N2CCOCC2)C(=C\c2ccccc2)/CC1,active: 2.94 µM,–
COc1ccc(C)cc1-n1nc2ccccc2n1,"inconclusive: 2.33 µM [inhibitor, single point]",–
CC1CCCCN1C(=O)c1ccc(COc2ccc([N+](=O)[O-])cc2)o1 (stereo unspecified),"inconclusive: 18.5 µM [inhibitor, single point]",–
O=C(O)C1=CC[C@@H](c2ccc(Cl)cc2)N(S(=O)(=O)c2ccc(Cl)cc2)C1,–,inactive: 53.5%
Oc1cccc[c]1[Hg][Cl],active: 1.07 µM,–
Nc1cc(=O)[nH]c(SCC(=O)Nc2cc(S(=O)(=O)N3CCOCC3)ccc2Cl)n1,–,inactive: -2.98%
O=C(c1ccsc1)N1CCCC(Nc2ccc(F)c(F)c2)C1 (stereo unspecified),"inconclusive: 14.7 µM [inhibitor, partial curve]",–
O=C(Nc1cccc(Cl)c1)Nc1csc([N+](=O)[O-])c1,active: 2.62 µM,–
CC1=NC(Nc2nc(C)c3ccccc3n2)=NC(C)(C)C1,"inconclusive: 10.4 µM [inhibitor, single point]",–

# Four records drawn at random from the list so far:
SMILES,Potency,"activity change, negative = inhibition"
CC(C)O,–,inactive: 1.73%
Cc1ccc(CNC(=O)c2cc(C3CC3)nc3c2cnn3C(C)C)cc1,"inconclusive: 4.15 µM [inhibitor, full curve]",–
COC(=O)C1=CN(CC2CCCO2)C=C(C(=O)OC)C1c1ccccc1C(F)(F)F (stereo unspecified),"inconclusive: 1.47 µM [inhibitor, full curve, poor fit]",–
CN(C1CCCCC1)S(=O)(=O)c1cc2c(cc1Cl)NC(=O)CO2,"inconclusive: 0.185 µM [inhibitor, full curve, poor fit]",–

# (listing goes on)

SMILES,Potency,"activity change, negative = inhibition"
CCOC(=O)c1sc(=NC(=O)c2cc(OC)c(OC)c(OC)c2)n(C)c1C,"inconclusive: 0.828 µM [inhibitor, full curve, poor fit]",–
CCOC(=O)c1c(S(=O)(=O)NCC(=O)Nc2ccccc2F)c(C)n(C)c1C,"inconclusive: 2.33 µM [inhibitor, full curve]",–
Cc1sc(-c2ccncc2)nc1OC(=O)c1ccccc1,–,inactive: -3.29%
CN1C(=O)N(C)C(c2ccccc2Cl)C2=C1CC(C)(C)CC2=O (stereo unspecified),"inconclusive: 10.4 µM [inhibitor, partial curve, poor fit]",–
Cc1ccc(CNC(=O)COc2ccccc2-c2ccccc2)cc1,active: 10.4 µM,–
COc1cccc(C2/C(=C(/O)c3ccncc3)C(=O)C(=O)N2CCCN(C)C)c1 (stereo unspecified),"inconclusive: 8.28 µM [inhibitor, partial curve]",–
CC1=NNC(=O)C1CCC(=O)N/N=C/C(Br)=C/c1ccccc1 (stereo unspecified),"inconclusive: 16.5 µM [inhibitor, partial curve, poor fit]",–
COc1ccc(C(C(=O)NC(C)(C)C)N(C(=O)CCC(=O)Nc2cc(C)on2)c2ccc(C)c(C)c2)cc1 (stereo unspecified),–,inactive: 17.3%
CC(=O)c1c(C)[nH]c(C(=O)N2CCc3ccccc32)c1C,"inconclusive: 18.5 µM [inhibitor, single point]",–
CCOC(=O)CN(Cc1ccc(OC)c(OC)c1)S(=O)(=O)c1ccc(OC)cc1,active: 9.28 µM,–
N#Cc1cnn(Cc2ccc(Cl)cc2)c1N,"inconclusive: 5.22 µM [inhibitor, partial curve]",–
CCN(CC)c1nc(N2CCOCC2)c(C#N)c2c1CN(C)CC2,active: 10.4 µM,–
CCn1c(SCC(=O)NCc2cccs2)nnc1-c1ccncc1,"inconclusive: 10.4 µM [inhibitor, partial curve, poor fit]",–
CCc1nnc(NS(=O)(=O)c2ccc(Nc3ccc4nonc4c3[N+](=O)[O-])cc2)s1,"inconclusive: 18.5 µM [inhibitor, single point]",–
Cc1ccc(NC(=S)N(CCCN2CCC(C)CC2)Cc2ccco2)cc1C,–,inactive: 5.44%
c1ccc(-c2ccc(CN3CCSCC3)cc2)cc1,active: 13.1 µM,–
NS(=O)(=O)c1ccc(CCNC(=O)c2ccc(NC3=NC4CS(=O)(=O)CC4S3)cc2)cc1 (stereo unspecified),–,inactive: 49.2%
O=C(COC(=O)c1ccccc1NCCO)Nc1cc(C(F)(F)F)ccc1N1CCOCC1,"inconclusive: 10.4 µM [inhibitor, partial curve]",–
COc1ccc(NCC(=O)N/N=C2\CCc3ccccc32)cc1,"inconclusive: 11.7 µM [inhibitor, partial curve, poor fit]",–
CCN1C(=O)/C(=C\c2cn(-c3ccccc3)nc2-c2cccnc2)SC1=S,"inconclusive: 1.04 µM [inhibitor, partial curve, poor fit]",–
CCOC(=O)C1=C(C)NC(=O)NC1c1cc(Br)c(O)c(OC)c1 (stereo unspecified),–,inactive: 11.1%
COc1ccc(C)cc1N(CC(=O)NC1CCCC1)C(=O)CCC(=O)Nc1nc(C)cs1,"inconclusive: 10.4 µM [inhibitor, single point]",–
CCOc1ccc(N2C(=O)CC(NCCc3c[nH]c4ccccc34)C2=O)cc1 (stereo unspecified),"inconclusive: 0.522 µM [inhibitor, partial curve, poor fit]",–
Cc1ccc(CNC(=O)CCC2CCCN(Cc3cccc4ncccc34)C2)o1 (stereo unspecified),–,inactive: -22.3%

SMILES,Potency,"activity change, negative = inhibition"
CNC(=S)N(Cc1cc2ccc(OC)cc2[nH]c1=O)CC1CCCO1 (stereo unspecified),active: 13.1 µM,–
COCCCn1c(SCc2nnc(-c3ccc(OC)c(OC)c3)o2)nc2ccccc2c1=O,"inconclusive: 9.28 µM [inhibitor, single point]",–
CCC1CCCCN1CCCNC(=O)CSc1nc2nc(C)c(Cc3ccc(C)cc3)c(C)n2n1 (stereo unspecified),–,inactive: 30.3%
CCOC(=O)Cc1cc(=O)n2[nH]cc(-c3cccc(Br)c3)c2n1,–,inactive: 17.9%
CCCCc1c(C)c(C#N)c2nc3ccccc3n2c1Cl,"inconclusive: 4.15 µM [inhibitor, single point]",–
COC(=O)C1=C(c2ccc(F)cc2OCc2ccccc2)C[C@@H]2CC[C@H]1N2C(=O)NCc1cccc(OC)c1,"inconclusive: 1.85 µM [inhibitor, full curve]",–
CCC(C)NC(=O)[C@H](CSCc1ccccc1)N1Cc2ccccc2C1=O (stereo partly specified),active: 10.4 µM,–
CN(C(=O)c1ccccn1)C1(C(=O)NC2CCCCC2)CCCCC1,"inconclusive: 13.1 µM [inhibitor, single point]",–
COc1ccc(CCN(C)Cc2c(O)ccc3ccccc23)cc1OC,–,inactive: 17.3%
Cc1ccccc1CNC(=O)c1ccc2nc(N3CCOCC3)sc2c1,–,inactive: 17.2%
CCOc1ccc(CCNC(=O)CN2C(=O)NC3(CCCCCC3)C2=O)cc1OCC,"inconclusive: 10.4 µM [inhibitor, partial curve, poor fit]",–
CC(C)c1onc(C(=O)NCCc2ccccc2)c1[N+](=O)[O-],"inconclusive: 1.04 µM [inhibitor, partial curve, poor fit]",–
Cn1c(SCc2ccccc2Br)nc2ccccc2c1=O,"inconclusive: 18.5 µM [inhibitor, partial curve, poor fit]",–
CN(C)C(=S)Nc1cccc(-c2n[nH]c(=S)o2)c1,"inconclusive: 9.28 µM [inhibitor, single point]",–
O=C(CCC1CCCC1)N1CCC(N2CCCCCC2)CC1,–,inactive: 2.07%
O=C(CN1CCC(n2nnc3cc(F)ccc32)CC1)NNC(=O)c1ccccc1,"inconclusive: 7.38 µM [inhibitor, partial curve, poor fit]",–
CCOC(=O)c1c(C)n(C)c2ccc(OC)c(NC(=O)CN3CCCCC3)c12,"inconclusive: 7.38 µM [inhibitor, partial curve, poor fit]",–
COc1ccc(CNCc2cc(Cl)ccc2O)cc1,active: 13.1 µM,–
Cc1c(OCC(=O)NCCCN2CCCC2=O)ccc2c3c(c(=O)oc12)CCCC3,active: 18.5 µM,–
COc1cccc(N2CCN(Cc3nc4scc(-c5ccccc5)c4c(=O)[nH]3)CC2)c1,"inconclusive: 9.28 µM [inhibitor, partial curve, poor fit]",–
CN(C(=O)c1cccc(N2C(=O)C3CC=CCC3C2=O)c1)C1CCCCC1 (stereo unspecified),active: 10.4 µM,–
CCOc1ccc2nc(SCC(=O)N(CC(C)C)c3c(N)n(Cc4ccccc4)c(=O)[nH]c3=O)[nH]c2c1,active: 11.7 µM,–
COc1ccc(OCC(=O)Nc2cc(-c3nn(C)c(=O)c4ccccc34)ccc2OC)cc1,"inconclusive: 4.15 µM [inhibitor, partial curve]",–
